Laboratory results: US7723528B2, “Sulfur transfer reagents for oligonucleotide synthesis” (AM Chemicals LLC, priority 2008, dated 2010)

Test system: solid support-bound internucleosidic phosphite triesters
Experiment: Sulfur transfer in solid phase synthesis of oligonucleotide phosphorothioates
Conditions: optimized conditions

CCCCN(C=Nc1nc(=S)ss1)CCCC [Compound 3, N′-(3-thioxo-3H-1,2,4-dithiazol-5-yl)-N,N-dibutylmethanimidamide]
Contact time required for complete sulfur transfer (0.02 M solution): 2 min
Contact time required for complete sulfur transfer (0.05 M solution): 1 min
Contact time required for complete sulfur transfer (0.1 M solution): 0.5 min
